Where a name gives a salt, the structure may show the parent alone. The list shows a part of the results. Repeats in this data set agree poorly, so a single value says little.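 PR50, a 50-repeat proline–arginine dipeptide protein from C9ORF72 (ALS/FTD), was expressed by transfection in U-2 OS human cells stably carrying a GFP sensor with import and classical export signals. Per-well nuclear-minus-cytoplasm GFP, normalized between in-plate DMSO (low) and PR-only (high), was scored versus other test wells; compounds well below zero were hits reversing PR.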

The assay concerns U-2 OS NCT-C biosensor cells expressing PR50. Put plainly: Z-score of normalised NCT-C biosensor translocation index in PR50-expressing cells; higher = more nuclear biosensor (more disrupted nuclear export). The following applies: 3 µM; 24 h.
On to `Nc1ncnc2c1ncn2[C@@H]1O[C@H](COP(=O)(O)CP(=O)(O)OP(=O)([O-])O)[C@@H](O)[C@H]1O.[Li+]` [alpha,beta-Methylene adenosine 5'- triphosphate lithium salt], for which the Z-score is inactive: -0.706.

`COc1cc(NS(C)(=O)=O)ccc1Nc1c2ccccc2nc2ccccc12` [Amsacrine hydrochloride]: the Z-score is inactive: -0.0466. The result for `COc1ccc(/C=C/C(=O)c2c(O)cc(OC)cc2OC)cc1` [Flavokawain A] reads inactive: -0.393. Regarding `CN(C)c1ccc(/C=C2/C(=O)Nc3ccccc32)cc1`, the Z-score is inactive: -0.265. On to `COc1ccccc1S(=O)(=O)Nc1ccc2c(c1)CN(C)C(=O)N2`, for which the Z-score was inactive: -1.4. With `C1CCN2C[C@@H]3C[C@@H](CN4CCCC[C@@H]34)[C@H]2C1` [Spartein sulfate·5H2O] the figure was inactive: 0.467; with `Nc1nc(=O)c(Br)c(-c2ccccc2)[nH]1` [Bropirimine], inactive: -0.394. Turning to `CC1(C)O[C@@H]2C[C@H]3[C@@H]4CCC5=CC(=O)C=C[C@]5(C)[C@@]4(F)[C@@H](O)C[C@]3(C)[C@]2(C(=O)CO)O1` [Triamcinolone Acetonide], the Z-score was inactive: 0.167. Consider `N=C(N)SCCc1c[nH]cn1` [Imetit dihydrobromide], for which the Z-score was inactive: 0.782. In the case of `CC(C)NCC(O)COc1ccc(CC(N)=O)cc1` (racemic) [(±)-Atenolol], the Z-score is inactive: -0.0804.

For the compound `Cc1cnc(NC(=O)C2=C(O)c3ccccc3S(=O)(=O)N2C)s1` [Meloxicam], the Z-score is inactive: -1.5. As to `Cc1cnc(NC(=O)C2=C(O)c3ccccc3S(=O)(=O)N2C)s1` [Meloxicam sodium], the Z-score is inactive: -0.761. The result for `O=C(O)CCCc1ccccc1` [Sodium Phenylbutyrate] reads inactive: -0.0404; that for `O=C(O)CCCc1ccccc1` [Phenylbutyrate·Na], active: -2.96; that for `O=C(O)CCCc1ccccc1` [Sodium 4-Phenylbutyrate], inactive: -1.89. Take `C[C@@H]1C[C@H]2[C@@H]3CCC4=CC(=O)C=C[C@]4(C)[C@@]3(F)[C@@H](O)C[C@]2(C)[C@@]1(O)C(=O)CO` [Dexamethasone]: the Z-score was inactive: -0.522. Take `NC(CCCP(=O)(O)O)C(=O)O` (racemic) [(±)-2-Amino-5-  phosphono pentanoic acid]: the Z-score was inactive: 0.221.

As for `O=C1CCC(c2ccc(-n3ccnc3)cc2)=NN1` [Imazodan], the Z-score is inactive: 0.167. With `CCOC(=O)[C@H](CCc1ccccc1)N[C@H]1CCc2ccccc2N(CC(=O)O)C1=O` [Benazepril·HCl] the figure was inactive: -0.136; with `CN1C(=O)C[C@H](C(=O)O)[C@H]1c1cccnc1` [Trans-4-Cotininecarboxylic acid], inactive: 2.13. Take `CC(C)(C)NC[C@H](O)COc1nsnc1N1CCOCC1` [S(-)-Timolol maleate]: the Z-score was inactive: -0.365. With `CC(C)(C)NC[C@H](O)COc1nsnc1N1CCOCC1` [(S)-Timolol Maleate], the Z-score was inactive: 1.73. With `c1ccc2c(c1)CCC[C@H]2Nc1nc2ccccc2[nH]1` [NS8593  hydrochloride], the Z-score was inactive: -0.337.

On to `COc1cc(C[C@H](C)[C@H](C)Cc2ccc3c(c2)OCO3)ccc1O` [Macelignan], for which the Z-score was inactive: -0.662. The result for `Cc1cc2nc(NCCCO)n(CC(=O)c3cc(C(C)(C)C)c(O)c(C(C)(C)C)c3)c2cc1C` reads inactive: -0.397; that for `NCCCC[C@H](N[C@@H](CCc1ccccc1)C(=O)O)C(=O)N1CCC[C@H]1C(=O)O` [Lisinopril·2H2O], inactive: 0.132. Turning to `FC(F)(F)c1ccccc1-n1ccnc1` [1-[2-  (Trifluoromethyl)ph enyl]imidazole], the Z-score is inactive: -0.216. For `C[C@@]12CCc3occc3[C@H]1CC[C@@]13C[C@@H](CC[C@H]12)[C@@](O)(CO)C3` [Cafestol], the Z-score was inactive: -0.126. For the compound `NCCOc1cc(C(=O)Nc2cc(OCCN)c3ccccc3n2)nc(C(=O)Nc2cc(OCCN)c3ccccc3n2)c1` [Pyridostatin trifluoroacetate salt], the Z-score is inactive: -0.763. Consider `CO/N=C(\C(=O)N[C@@H]1C(=O)N2C(C(=O)O)=C(CSc3nc(=O)c(O)nn3C)CS[C@H]12)c1csc(N)n1` [Ceftriaxone sodium salt], for which the Z-score was inactive: -0.473. As for `COc1cc(OC)c2c(=O)[nH]c(-c3cc(C)c(OCCO)c(C)c3)nc2c1`, the Z-score was active: -2.96. Regarding `Oc1ccccc1O` [Pyrocatechol], the Z-score was inactive: -0.0856. Turning to `COc1cccc(NC(=O)/C=C/c2ccc(Cl)cc2)c1`, the Z-score was inactive: -0.762.

Turning to `O=C1C[C@@H](c2ccc(O)c(O)c2)Oc2cc(O[C@@H]3O[C@H](CO)[C@@H](O)[C@H](O)[C@H]3O)cc(O)c21` [Eriodictyol-7-O-glucoside], the Z-score was inactive: -0.302. `CN(C)CCC(c1ccc(Cl)cc1)c1ccccn1` (single isomer, unassigned; (+)) [(+)-Chlorpheniramine maleate salt]: the Z-score was inactive: -0.523. For the compound `Cc1scc2c1N(C(=O)CN1CCN(C)CC1)c1ccccc1NC2=O` [Telenzepine dihydrochloride], the Z-score is inactive: 0.26. Regarding `c1ccc(C2CN3CCSC3=N2)cc1` (configuration not stated) [Tetramisole hydrochloride], the Z-score is inactive: -0.33.

In the case of `Cn1c(=O)c2nc[nH]c2n(C)c1=O` [Theophylline], the Z-score was inactive: -0.316. As for `CCCCCCCCCCCCCCCC(=O)OC[C@H](COP(=O)(O)OCCNC(=O)[C@H](C)NC(=O)CC[C@@H](NC(=O)[C@H](C)NC(=O)[C@@H](C)O[C@H]1[C@H](O)[C@@H](CO)OC(O)[C@@H]1NC(C)=O)C(N)=O)OC(=O)CCCCCCCCCCCCCCC` (some centres not stated) [Mifamurtide], the Z-score is inactive: 1.08. Turning to `Cc1cc(=O)oc2cc(O)ccc12` [4-Methylumbelliferone], the Z-score was inactive: 0.573. As to `CNC(=O)c1cc2c(cn1)[nH]c1ccccc12` [N-Methyl-beta-carboline-3-carboxamide], the Z-score is inactive: -0.456. On to `CC(C)C[C@H](NC(=O)[C@@H](COC(C)(C)C)NC(=O)[C@H](Cc1ccc(O)cc1)NC(=O)[C@H](CO)NC(=O)[C@H](Cc1c[nH]c2ccccc12)NC(=O)[C@H](Cc1cnc[nH]1)NC(=O)[C@@H]1CCC(=O)N1)C(=O)N[C@@H](CCCNC(=N)N)C(=O)N1CCC[C@H]1C(=O)NNC(N)=O` [Goserelin Acetate], for which the Z-score is inactive: 1.07.
